Assay results as given in PMC7819943, “Rice protein-binding microarrays: a tool to detect cis-acting elements near promoter regions in rice”.
This is one part of the list.

Amino acid sequences for entries named in this document (tags omitted).
UniProt Q0JBA9, entry or part of it: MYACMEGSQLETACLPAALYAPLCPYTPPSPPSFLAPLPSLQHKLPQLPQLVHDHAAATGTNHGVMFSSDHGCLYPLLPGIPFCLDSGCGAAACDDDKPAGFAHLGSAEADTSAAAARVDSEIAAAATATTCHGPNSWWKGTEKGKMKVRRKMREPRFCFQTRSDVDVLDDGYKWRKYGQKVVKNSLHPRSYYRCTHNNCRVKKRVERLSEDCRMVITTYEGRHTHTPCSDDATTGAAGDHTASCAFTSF

Each sequence was assayed against OsWRKY34 (Oryza sativa, UniProt Q0JBA9 1-250) (assay: protein-binding microarray (RPBM); PBS, 2% BSA, 51.3 ng/ul salmon testes DNA, 50 uM zinc acetate, 200 nM TF, 25 C, 1 h; high values mean tight binding). Settings: protein: recombinant; tags: N-terminal polyhistidine and DsRed monomer fusion (pET32a); label: CyDye5-dUTP incorporated in the synthesized complementary strand; 3' TTTTT single-stranded linker to array surface; dsDNA, one strand shown.
In short: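 Binding signal is reported as fluorescence intensity per feature (arbitrary units) from an Axon 4000B scanner. Incubation used 200 nM of each Ni–NTA-purified, N-terminally polyhistidine- and DsRed-fused transcription factor from E. coli BL21-CodonPlus on a double-stranded custom Agilent array for 1 h at 25 °C, with 50 µM zinc acetate in the buffer, followed by washing.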

**Q.** “CCTAACCGCAAAACACCGGATGTAGCGCATCCTTCATCTTCGGAGTCACCTAGTGCAG” was tested. Which binding signal did it give?
**A.** 8670 fluorescence intensity (a.u.)

**Q.** With “TGATATCTACACCCACTCGTCTCGCGCCTATATGAGCCGGCGGAGTCACCTAGTGCAG” as the sequence, how does the binding signal read?
**A.** 9360 fluorescence intensity (a.u.)

**Q.** For “CACACCACATCACACCGCACACCACACCGATCCCGACCAACGGAGTCACCTAGTGCAG”, which binding signal is on record?
**A.** 9320 fluorescence intensity (a.u.)

**Q.** “TAGTTTGCATCGACCATTATTCCATTTTCTGTTTTGATCTCGGAGTCACCTAGTGCAG” was tested. Which binding signal did it give?
**A.** 10600 fluorescence intensity (a.u.)

**Q.** With “GGGCCTTTTTCATCAAAATATTTTTTTCTCGGACCGTTTTCGGAGTCACCTAGTGCAG” as the sequence, how does the binding signal read?
**A.** 8180 fluorescence intensity (a.u.)

**Q.** “CCTCCATCTCCTCTCCTCCGATGCTTCACCTCGTCGCCCTCGGAGTCACCTAGTGCAG” was tested. Which binding signal did it give?
**A.** 8660 fluorescence intensity (a.u.)

**Q.** Which binding signal does the source give for “GACACCCTGGTTTCCGTGCCCAATATTTAACCGTTCGTTTCGGAGTCACCTAGTGCAG” here?
**A.** 8080 fluorescence intensity (a.u.)

**Q.** How did the binding signal turn out when “GCTTCGCTTTGCGCTCTCTCTATCTCTCTCTCTTCCAAAACGGAGTCACCTAGTGCAG” was run?
**A.** 8490 fluorescence intensity (a.u.)

**Q.** For “CATCACACGCAAAATCATCTTTCTTTATCATGATTCACACCGGAGTCACCTAGTGCAG”, which binding signal is on record?
**A.** 11000 fluorescence intensity (a.u.)

**Q.** For “AGCGGCGTATTTCTTCTCGTCTTTCTCCCATCCGCTGCCTCGGAGTCACCTAGTGCAG”, which binding signal is on record?
**A.** 11200 fluorescence intensity (a.u.)

**Q.** With “GCGGCGGGGTCGATGTGTGACGGCGGCGGCGGGGTCGATGCGGAGTCACCTAGTGCAG” as the sequence, how does the binding signal read?
**A.** 11800 fluorescence intensity (a.u.)

**Q.** “GCTATATATTCCTCCTCGTCGTCGCCATGGCACCTTCACTCGGAGTCACCTAGTGCAG” was tested. Which binding signal did it give?
**A.** 10200 fluorescence intensity (a.u.)

**Q.** For “GCGATATTGACCGAGTCTTTGTTCCACGTGGCGTTGACGTCGGAGTCACCTAGTGCAG”, which binding signal is on record?
**A.** 10200 fluorescence intensity (a.u.)

**Q.** “TAGCTTTGGAGGAGGAGGAGGAGGAGGGGCGCGAGCCATGCGGAGTCACCTAGTGCAG” was tested. Which binding signal did it give?
**A.** 10800 fluorescence intensity (a.u.)

**Q.** “CCCCAGCGAAAAATTTTCGCGCTCACGCACGCACACACGCCGGAGTCACCTAGTGCAG” was tested. Which binding signal did it give?
**A.** 9430 fluorescence intensity (a.u.)

**Q.** How did the binding signal turn out when “TGCCCACCAACCTCTCTTTCTCTTTTCTCTCTCGGTCTCGCGGAGTCACCTAGTGCAG” was run?
**A.** 8200 fluorescence intensity (a.u.)

**Q.** For “TCCCTAAATATATGACGTTGTTGACTTTTTAAAACATTTTCGGAGTCACCTAGTGCAG”, which binding signal is on record?
**A.** 11200 fluorescence intensity (a.u.)

**Q.** For “TATTTATGGACTTCCGATGGGTTTGGTTGGCTGTTCTGCTCGGAGTCACCTAGTGCAG”, which binding signal is on record?
**A.** 15000 fluorescence intensity (a.u.)

**Q.** With “GCCTCTCCATCTTCGTGGCCGACCGCCGCGTCGCGCACGCCGGAGTCACCTAGTGCAG” as the sequence, how does the binding signal read?
**A.** 11600 fluorescence intensity (a.u.)

**Q.** Which binding signal does the source give for “ATATACAGTACACGTTCTTGCCCTCATTGCCACATAGTACCGGAGTCACCTAGTGCAG” here?
**A.** 11900 fluorescence intensity (a.u.)

**Q.** How did the binding signal turn out when “CTCACCTCGGCCCCACCCATACTACCCACTCATTGCCACGCGGAGTCACCTAGTGCAG” was run?
**A.** 8970 fluorescence intensity (a.u.)

**Q.** How did the binding signal turn out when “GAACGGTCAAACATGTTTAAAAAAGTCAATGACGTCAGATCGGAGTCACCTAGTGCAG” was run?
**A.** 8730 fluorescence intensity (a.u.)

**Q.** For “TTGTAATGGTTGTCCTGCCCTCACATACCTTGAAAAAACACGGAGTCACCTAGTGCAG”, which binding signal is on record?
**A.** 9340 fluorescence intensity (a.u.)
